Values quoted from earlier work in US8263574B2, “Topical formulations for the treatment of depression with S adenosyl methionine” (priority 2004, dated 2012).
Some results were stated once for a whole list of compounds, not compound by compound. At least one structure is not confirmed: it was looked up by name or label, or the drawing left a doubt.

Tested on: patients with Major Depression
Details: SAM-e intramuscular 400 mg/d, IMI oral 150 mg/d, 4 weeks; cited from earlier work

C[S+](CC[C@H](N)C(=O)O)C[C@H]1O[C@@H](n2cnc3c(N)ncnc32)[C@H](O)[C@@H]1O (some centres unmarked) [SAM-e, S-adenosyl methionine]
HAMD improvement (antidepressant response): at least 50%

CN(C)CCCN1c2ccccc2CCc2ccccc21 [IMI, imipramine]
HAMD improvement (antidepressant response): at least 50%
